In PMC7140707:

B1: YBL086C (protein, UniProt P38177 1-466)
chain: MPFNHNSKAKRPKFLLDLQIKELVNIPQSSGYCYTKWRLKDGTGTSGHKVALDGEHQTTSTQSRGTTKHVHVQHHRAQWNYSLDKPILVKLHLDKNGRFLKKILVLDVFFEFADANSSLTSSSSPNGKVKKTTYANATALTATGNNSYSQKITGKLLLGTVDIDITEYVKEDETPTTNRFLLKHSKVNSIINVSLQLKLVRGSYEDFNISKSFTNGQLANYRPGINTILDNTSELSSPTSTTNQMSPKNTFSNFNGIGTTVAKPGTNATGNSTSIKSPTSTNHKSSEMTTKPGLSTTISSSMSPLIESLYQKTFKLPWDPRPGEFTPRECVEDILQGGNGWAKNEKGINLIDLQALRLNEMEEEYYNPNYGNNLGNKASSWPPNPSDDGYSTMGKREYLEKKQNWSHMSRAQRAKLRTHNDEDNENTANDKGSDKDNNSVEDNNPTDFLTDRIRENKNWSIITPSG
B2: YCR087C-A (protein, UniProt P37263 1-153)
chain: MVTFNCEVCNDTVPKKNTEKHYYRCPNAYYTCIDCSKTFEDGVSYKNHTSCISEDEKYQKALYKGNKKQKQKQQQKQQQKQHQHQPVATPAKKVEKPVIKKAEKVEKTSNGIELHKGKSLYKILKTMKDKGAKKTFLKSLVVDSEGQIRYAKE
B3: DLD3 (protein, UniProt P39976 1-496)
chain: MTAAHPVAQLTAEAYPKVKRNPNFKVLDSEDLAYFRSILSNDEILNSQAPEELASFNQDWMKKYRGQSNLILLPNSTDKVSKIMKYCNDKKLAVVPQGGNTDLVGASVPVFDEIVLSLRNMNKVRDFDPVSGTFKCDAGVVMRDAHQFLHDHDHIFPLDLPSRNNCQVGGVVSTNAGGLNFLRYGSLHGNVLGLEVVLPNGEIISNINALRKDNTGYDLKQLFIGAEGTIGVVTGVSIVAAAKPKALNAVFFGIENFDTVQKLFVKAKSELSEILSAFEFMDRGSIECTIEYLKDLPFPLENQHNFYVLIETSGSNKRHDDEKLTAFLKDTTDSKLISEGMMAKDKADFDRLWTWRKSVPTACNSYGGMYKYDMSLQLKDLYSVSAAVTERLNAAGLIGDAPKPVVKSCGYGHVGDGNIHLNIAVREFTKQIEDLLEPFVYEYIASKKGSISAEHGIGFHKKGKLHYTRSDIEIRFMKDIKNHYDPNGILNPYKYI
B4: DUF1 (protein, UniProt Q99247 1-1116)
chain: MNQLTVSYGLISPDYCTSQDAHILPITKILYPDIPGKNYFLTSGRDGSIILHKNTQLSNEPETAATTIKNDAIRMQVHSDWASDLIHVNMKNSDPSAGDTFISVSHDFSIVLISVNAQLTTWDKKIIGDHDDYIKCIVPIHYEMSNDYELEEQEGGPDNVHDGINNGIVVDEQNNFLFVTGGLDRKIKLWCLSSGPEKMATLLHTFDNAQSNDTGSIYSMSPIIPKYSFDDNQTSRPFDFVAGDCNGDLIFYSCKYRKEVIRIQNAHRTNIKVVRTLDDSTRLISTSSDGVINVWDLNCRHDQTTGALQLPKKIGSWSWDSSIWCVQGTSLDKLYFGDSQGNVMRANLSSYEDAKLTRIFKPDHHHHHHHHHEHEEQNISTTDAKVKKYGGILDIALLPNEKLLFSFCTDSNLNVLDLTNNHFSVNEGGFALTRSSLLTNRRHVITENTKGQMQRWDIVSCELLNTFDSSEGSFDDIVMKYTSKEILSHWCTVSVKVGMLFVKINPKFLKTEVYGSALKDYQVVNNIEINSDERYNLGKIVINSLFNEFISYEVQKDKLLRKKIFSLKKKDLTNSLTLDTGYNSESKKNNKDKKRKSTFKISSTLSIGNTNSSGTPPNSAPATPVMAETIVLEEQPLLQSASDKAIDDSLELVQPLPASKKPYFRTQSSGSLLSRKFKSFRSTSGRATTGLNTPEEPKGILPDTPHVINDDSAFPQAINTTQQSKDATPESMLWNHPFKLEQKLSAISSQDLPSNNTHNKLRSSENSRANSTSTLEGNEKKKPEFMPDLLEQIQESYKQQYMNTSSLKYLTKRLPVTKIIKASSCPIIRVKSATLVLVHLWKEGSCGGRVLFSTLLPPSHVDNETVSGGKENSKPPDDEEVDLQAVDDDKLGKYDLIDGELGSRLNRRQIFEQLEENLPYWFAKALFRDIKTVEEQPKLNFLIMPWSSVGGSEAAGNENKKKFISASDTTESSGNDSSDSSLGNGNEAVSPSTQQQFHNMLKFGRPKTSEQELNPTDLPRISEANVKLVAPGMIRVKKIKLYVADRFETKTPEMKAKMEPSLWLDLLCRGQVLDNDMTLNTVRTLYWKSQGDIVLEYRRKVHNSPLVHEVNGNEGK
B5: GAL83 (protein, UniProt Q04739 1-417)
chain: MAGDNPENKDASMLDVSDAASNTTINGKHSADSTNEASLAYTFSQMNVDNPNELEPQHPLRHKSSLIFNDDDDDEIPPYSNHAENGSGETFDSDDDIDASSSSSIDSNEGDIHDADMTGNTLQKMDYQPSQQPDSLQNQGFQQQQEQQQGTVEGKKGRAMMFPVDITWQQGGNKVYVTGSFTGWRKMIGLVPVPGQPGLMHVKLQLPPGTHRFRFIVDNELRFSDYLPTATDQMGNFVNYMEVSAPPDWGNEPQQHLAEKKANHVDDSKLSKRPMSARSRIALEIEKEPDDMGDGYTRFHDETPAKPNLEYTQDIPAVFTDPNVMEQYYLTLDQQQNNHQNMAWLTPPQLPPHLENVILNSYSNAQTDNTSGALPIPNHVILNHLATSSIKHNTLCVASIVRYKQKYVTQILYTPLQ
B6: DOT6 (protein, UniProt P40059 1-670)
chain: MSISTSLNSASIHLSSMDTHPQLHSLTRQPHSSSTAMSKNEAQESSPSLPASSSSSTSASASASSKNSSKNPSSWDPQDDLLLRHLKEVKKMGWKDISQYFPNRTPNACQFRWRRLKSGNLKSNKTALIDINTYTGPLKITHGDETANAQQKPSKKVEENVLTEDTAEFTTTSSIPIPSRKTSLPSFHASMSFSQSPSNVTPTTIVSNAASSMPFAPPTLPAALPHHPHQHLHHHPHHKTLKPRSNSHSFTNSLNQDPIVRSNDEEKYGFIPKVFVRSRRSSFAYPQQVAITTTPSSPNSSHVLLSSKSRRGSLANWSRRSSFNVSSNNTSRRSSMILAPNSVSNIFNVNNSGSNTASTSNTNSRRESVIKKEFQQRLNNLSNSGGPTSNNGPIFPNSYTFMDLPHSSSVSSSSTLHKSKRGSFSGHSMKSSCNPTNLWSKDEDALLMENKKRNLSVMELSILLPQRTEVEIQWRLNALSSDADMLSPTHSPQKTLSKKTCPRMFKSGSTTDDDKGSDKEDVMGDGSNDDDEDNVDPLHRAKQSSNKTVFSSSSSNISSKDVSPDPIFSPDPADDSSNTSDAGSRCTITSDTSSSAATMNRTPNSKNPQDIALLNNFRSEAITPRPKPSSTTTSITTETTNNMINHSSSTTTTTNNSPLPSINTIFKDML
B7: GUA1 (protein, UniProt P38625 1-525)
chain: MAAGEQVSNMFDTILVLDFGSQYSHLITRRLREFNIYAEMLPCTQKISELGWTPKGVILSGGPYSVYAEDAPHVDHAIFDLNVPILGICYGMQELAWINGKQVGRGDKREYGPATLKVIDDSNSLFKGMNDSTVWMSHGDKLHGLPTGYKTIATSDNSPYCGIVHETKPIYGIQFHPEVTHSTQGKTLLKNFAVDLCHAKQNWTMENFIDTEINRIRKLVGPTAEVIGAVSGGVDSTVASKLMTEAIGDRFHAILVDNGVLRLNEAANVKKTLVEGLGINLMVVDASEEFLSKLKGVTDPEKKRKIIGNTFIHVFEREAEKIKPKDGKEIQFLLQGTLYPDVIESISFKGPSQTIKTHHNVGGLLENMKLKLIEPLRELFKDEVRHLGELLGIPHDLVWRHPFPGPGIAIRVLGEVTKEQVEIARKADNIYIEEIKKAGLYNQISQAFACLLPVKSVGVMGDQRTYDQVIALRAIETTDFMTADWFPFEHSFLKKVASRIVNEVDGVARVTYDITSKPPATVEWE
B8: HBT1 (protein, UniProt Q07653 1-1046)
chain: MNMNESISKDGQGEEEQNNFSFGGKPGSYDSNSDSAQRKKSFSTTKPTEYNLPKEQPESTSKNLETKAKNILLPWRKKHNKDSETPHEDTEADANRRANVTSDVNPVSADTKSSSGPNATITTHGYSYVKTTTPAATSEQSKVKTSPPTSHEHSNIKASPTAHRHSKGDAGHPSIATTHNHSTSKAATSPVTHTHGHSSATTSPVTHTHGHASVKTTSPTNTHEHSKANTGPSATATTHGHINVKTTHPVSHGHSGSSTGPKSTAAAQDHSSTKTNPSVTHGHTSVKDNSSATKGYSNTDSNSDRDVIPGSFRGMTGTDVNPVDPSVYTSTGPKSNVSSGMNAVDPSVYTDTSSKSADRRKYSGNTATGPPQDTIKEIAQNVKMDESEQTGLKNDQVSGSDAIQQQTMEPEPKAAVGTSGFVSQQPSYHDSNKNIQHPEKNKVDNKNISERAAEKFNIERDDILESADDYQQKNIKSKTDSNWGPIEYSSSAGKNKNLQDVVIPSSMKEKFDSGTSGSQNMPKAGTELGHMKYNDNGRDNLQYVAGSQAGSQNTNNNIDMSPRHEAEWSGLSNDATTRNNVVSPAMKDEDMNEDSTKPHQYGLDYLDDVEDYHENDIDDYSNAKKNDLYSKKAYQGKPSDYNYEQREKIPGTFEPDTLSKSVQKQDEDPLSPRQTTNRAGMETARDESLGNYEYSNTSGNKKLSDLSKNKSGPTPTRSNFIDQIEPRRAKTTQDIASDAKDFTNNPETGTTGNVDTTGRMGAKSKTFSSNPFDDSKNTDTHLENANVAAFDNSRSGDTTYSKSGDAETAAYDNIKNADPTYAKSQDITGMTHDQEPSSEQKASYGSGGNSQNQEYSSDDNIDVNKNAKVLEEDAPGYKREVDLKNKRRTDLGGADASNAYAAEVGNFPSLIDPHVPTYGFKDTNTSSSQKPSEGTYPETTSYSIHNETTSQGRKVSVGSMGSGKSKHHHNHHRHSRQNSSKGSDYDYNNSTHSAEHTPRHHQYGSDEGEQDYHDDEQGEEQAGKQSFMGRVRKSISGGTFGFRSEI

biological target: T1, His6-Gis1 (yeast (S. cerevisiae)) (UniProt Q03833); assay: affinity purification with mass spectrometry; His6-Gis1 pre-bound to a Ni Sepharose 6 Fast Flow column; crude yeast extract (Δgis1 cells grown in air or under hypoxia, Δgis1Δhem1 cells at intermediate or high ALA) loaded, 4 °C, 2 h; eluted complexes separated by SDS-PAGE, bands excised, MS; only the target purified
T1 sequence: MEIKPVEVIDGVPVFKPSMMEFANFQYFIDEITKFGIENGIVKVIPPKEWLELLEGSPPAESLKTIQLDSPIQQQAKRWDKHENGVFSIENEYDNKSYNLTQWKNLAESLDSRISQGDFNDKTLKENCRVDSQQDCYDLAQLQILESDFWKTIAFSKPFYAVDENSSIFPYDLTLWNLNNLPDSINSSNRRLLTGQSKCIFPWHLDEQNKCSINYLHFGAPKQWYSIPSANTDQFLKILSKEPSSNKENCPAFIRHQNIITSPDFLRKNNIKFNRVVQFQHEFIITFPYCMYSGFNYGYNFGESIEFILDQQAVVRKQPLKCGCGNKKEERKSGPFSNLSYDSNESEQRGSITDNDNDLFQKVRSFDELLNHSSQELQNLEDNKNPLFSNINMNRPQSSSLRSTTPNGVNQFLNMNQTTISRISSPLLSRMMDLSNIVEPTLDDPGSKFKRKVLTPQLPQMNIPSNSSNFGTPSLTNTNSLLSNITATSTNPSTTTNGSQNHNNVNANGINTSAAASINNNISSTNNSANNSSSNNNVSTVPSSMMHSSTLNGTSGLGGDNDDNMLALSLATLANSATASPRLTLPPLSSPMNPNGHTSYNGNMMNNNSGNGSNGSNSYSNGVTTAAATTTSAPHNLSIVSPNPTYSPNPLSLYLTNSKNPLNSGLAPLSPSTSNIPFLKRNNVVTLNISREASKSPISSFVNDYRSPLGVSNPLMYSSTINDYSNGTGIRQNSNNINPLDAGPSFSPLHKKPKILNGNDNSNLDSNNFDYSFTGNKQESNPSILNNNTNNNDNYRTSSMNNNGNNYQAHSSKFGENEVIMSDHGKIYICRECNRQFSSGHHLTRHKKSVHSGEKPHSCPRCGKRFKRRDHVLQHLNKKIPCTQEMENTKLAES

Binder	binding
B1	binds
B2	binds
B3	binds
B4	binds
B5	binds
B6	binds
B7	binds
B8	binds

These are yes or no findings as the source states them, for the method shown. In cells and extracts the contact can be indirect. A yes stands for co-enrichment or nearness to the bait. Other partners may have been found. Tags and fused reporters may be left off the sequences shown.
